No constants are given. Whether binding was seen depends on the method and setting. In cells and extracts the contact can be indirect. Binding can be weak; no strength is given.
Biological target: NLS mutant TEAD3-Myc/Flag (human) (UniProt Q99594)
Experiment: co-IP; anti-Myc IP of MYC-tagged WT or NLS mutant TEAD3 from cell lysates, Western blot of endogenous partners; WT TEAD3 also after 20 μg/ml bleomycin for the indicated time points; lysis buffer with universal nuclease

By UniProt entry, the sequences of proteins in these tests, tags left out. Where a name states a change or a piece, a line headed by the entry shows the natural chain unless it says otherwise.
UniProt Q99594: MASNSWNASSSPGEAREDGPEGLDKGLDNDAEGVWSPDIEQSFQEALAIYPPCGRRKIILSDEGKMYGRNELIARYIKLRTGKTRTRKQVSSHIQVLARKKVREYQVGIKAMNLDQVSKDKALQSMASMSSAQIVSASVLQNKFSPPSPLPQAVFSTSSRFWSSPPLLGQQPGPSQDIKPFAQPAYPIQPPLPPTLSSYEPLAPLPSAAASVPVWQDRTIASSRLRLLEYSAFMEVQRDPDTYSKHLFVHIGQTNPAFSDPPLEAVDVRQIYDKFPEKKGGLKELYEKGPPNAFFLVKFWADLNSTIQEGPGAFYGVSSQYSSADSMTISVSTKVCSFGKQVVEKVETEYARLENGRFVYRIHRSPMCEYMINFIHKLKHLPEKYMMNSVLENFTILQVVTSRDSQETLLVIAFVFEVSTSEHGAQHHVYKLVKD
UniProt P46937: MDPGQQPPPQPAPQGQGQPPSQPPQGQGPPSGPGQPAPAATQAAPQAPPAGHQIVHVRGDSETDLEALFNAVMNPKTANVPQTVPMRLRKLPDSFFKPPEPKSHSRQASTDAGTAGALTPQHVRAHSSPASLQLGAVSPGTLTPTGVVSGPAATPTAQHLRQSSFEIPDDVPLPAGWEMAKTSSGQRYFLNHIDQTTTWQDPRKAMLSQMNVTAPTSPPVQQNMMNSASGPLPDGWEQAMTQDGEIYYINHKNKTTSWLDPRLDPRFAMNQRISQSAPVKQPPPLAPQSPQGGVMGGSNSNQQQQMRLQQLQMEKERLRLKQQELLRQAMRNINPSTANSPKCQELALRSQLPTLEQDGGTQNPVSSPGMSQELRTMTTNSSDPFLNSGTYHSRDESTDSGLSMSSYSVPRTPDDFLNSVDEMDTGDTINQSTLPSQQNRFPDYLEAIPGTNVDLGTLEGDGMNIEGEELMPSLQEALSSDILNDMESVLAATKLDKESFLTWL

binding: binds
Substance: Yes-associated protein (YAP) (from UniProt P46937 1-504)
